Assay results published in publication PMC11984302.
Construct, isoform or probe ends are uncertain for at least one entry.

Tested on: thrombin (human plasma, Sigma-Aldrich) (Homo sapiens)
Experiment: cited
Settings: SICS: thrombin in 1 M KCl (or 150 mM KCl), pH 7.5, 30 min incubation, 300 mV; gel: 16% Tris-Glycine; temperature not stated; commercial protein; folded or branched DNA

Does “AGTCCGTGGTAGGGCAGGTTGGGGTGACT [TBA 2 (29-mer)]” bind?
Result: binds
